In experiment [1] the target is GFP-p80 250-655 aa (C-terminal region) (human) (UniProt Q9BVA0). The experiment is described as follows: co-IP; anti-GFP antibody (JL-8) on protein G-Sepharose, lysates of MEF cells overexpressing GFP or GFP-p80 constructs; 20 mM Tris pH 8.0, 0.1 M KCl, 0.2% Triton X-100; 2 h; Western blot. Background: A western blot detects proteins with antibodies after separation by electrophoresis.

Chains of the proteins cited; added tags and fusions are not shown. Lines headed by an entry give the natural chain unless they say otherwise; changes in a name come on top. Residues count along the entry.
UniProt Q9BVA0: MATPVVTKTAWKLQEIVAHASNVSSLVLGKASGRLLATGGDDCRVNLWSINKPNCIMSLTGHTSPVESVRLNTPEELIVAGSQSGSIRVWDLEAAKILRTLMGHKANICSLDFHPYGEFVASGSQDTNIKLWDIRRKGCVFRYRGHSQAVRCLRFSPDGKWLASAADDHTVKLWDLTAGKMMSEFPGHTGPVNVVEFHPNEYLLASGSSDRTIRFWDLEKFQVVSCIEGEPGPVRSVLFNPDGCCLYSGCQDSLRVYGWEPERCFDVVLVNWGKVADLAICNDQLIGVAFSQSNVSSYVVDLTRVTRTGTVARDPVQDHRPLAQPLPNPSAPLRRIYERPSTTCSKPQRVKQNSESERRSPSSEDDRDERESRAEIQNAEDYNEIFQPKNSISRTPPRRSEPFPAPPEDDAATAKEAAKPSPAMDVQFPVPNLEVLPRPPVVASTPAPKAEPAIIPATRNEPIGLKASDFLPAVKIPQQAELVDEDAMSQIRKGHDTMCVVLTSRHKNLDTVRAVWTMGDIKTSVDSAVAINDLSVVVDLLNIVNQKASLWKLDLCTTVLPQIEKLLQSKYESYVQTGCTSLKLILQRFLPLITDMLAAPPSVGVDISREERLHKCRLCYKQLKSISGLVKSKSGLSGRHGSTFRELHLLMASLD
GFP-p80 250-655 aa (C-terminal region): residues 250-655 of Q9BVA0
UniProt Q14980: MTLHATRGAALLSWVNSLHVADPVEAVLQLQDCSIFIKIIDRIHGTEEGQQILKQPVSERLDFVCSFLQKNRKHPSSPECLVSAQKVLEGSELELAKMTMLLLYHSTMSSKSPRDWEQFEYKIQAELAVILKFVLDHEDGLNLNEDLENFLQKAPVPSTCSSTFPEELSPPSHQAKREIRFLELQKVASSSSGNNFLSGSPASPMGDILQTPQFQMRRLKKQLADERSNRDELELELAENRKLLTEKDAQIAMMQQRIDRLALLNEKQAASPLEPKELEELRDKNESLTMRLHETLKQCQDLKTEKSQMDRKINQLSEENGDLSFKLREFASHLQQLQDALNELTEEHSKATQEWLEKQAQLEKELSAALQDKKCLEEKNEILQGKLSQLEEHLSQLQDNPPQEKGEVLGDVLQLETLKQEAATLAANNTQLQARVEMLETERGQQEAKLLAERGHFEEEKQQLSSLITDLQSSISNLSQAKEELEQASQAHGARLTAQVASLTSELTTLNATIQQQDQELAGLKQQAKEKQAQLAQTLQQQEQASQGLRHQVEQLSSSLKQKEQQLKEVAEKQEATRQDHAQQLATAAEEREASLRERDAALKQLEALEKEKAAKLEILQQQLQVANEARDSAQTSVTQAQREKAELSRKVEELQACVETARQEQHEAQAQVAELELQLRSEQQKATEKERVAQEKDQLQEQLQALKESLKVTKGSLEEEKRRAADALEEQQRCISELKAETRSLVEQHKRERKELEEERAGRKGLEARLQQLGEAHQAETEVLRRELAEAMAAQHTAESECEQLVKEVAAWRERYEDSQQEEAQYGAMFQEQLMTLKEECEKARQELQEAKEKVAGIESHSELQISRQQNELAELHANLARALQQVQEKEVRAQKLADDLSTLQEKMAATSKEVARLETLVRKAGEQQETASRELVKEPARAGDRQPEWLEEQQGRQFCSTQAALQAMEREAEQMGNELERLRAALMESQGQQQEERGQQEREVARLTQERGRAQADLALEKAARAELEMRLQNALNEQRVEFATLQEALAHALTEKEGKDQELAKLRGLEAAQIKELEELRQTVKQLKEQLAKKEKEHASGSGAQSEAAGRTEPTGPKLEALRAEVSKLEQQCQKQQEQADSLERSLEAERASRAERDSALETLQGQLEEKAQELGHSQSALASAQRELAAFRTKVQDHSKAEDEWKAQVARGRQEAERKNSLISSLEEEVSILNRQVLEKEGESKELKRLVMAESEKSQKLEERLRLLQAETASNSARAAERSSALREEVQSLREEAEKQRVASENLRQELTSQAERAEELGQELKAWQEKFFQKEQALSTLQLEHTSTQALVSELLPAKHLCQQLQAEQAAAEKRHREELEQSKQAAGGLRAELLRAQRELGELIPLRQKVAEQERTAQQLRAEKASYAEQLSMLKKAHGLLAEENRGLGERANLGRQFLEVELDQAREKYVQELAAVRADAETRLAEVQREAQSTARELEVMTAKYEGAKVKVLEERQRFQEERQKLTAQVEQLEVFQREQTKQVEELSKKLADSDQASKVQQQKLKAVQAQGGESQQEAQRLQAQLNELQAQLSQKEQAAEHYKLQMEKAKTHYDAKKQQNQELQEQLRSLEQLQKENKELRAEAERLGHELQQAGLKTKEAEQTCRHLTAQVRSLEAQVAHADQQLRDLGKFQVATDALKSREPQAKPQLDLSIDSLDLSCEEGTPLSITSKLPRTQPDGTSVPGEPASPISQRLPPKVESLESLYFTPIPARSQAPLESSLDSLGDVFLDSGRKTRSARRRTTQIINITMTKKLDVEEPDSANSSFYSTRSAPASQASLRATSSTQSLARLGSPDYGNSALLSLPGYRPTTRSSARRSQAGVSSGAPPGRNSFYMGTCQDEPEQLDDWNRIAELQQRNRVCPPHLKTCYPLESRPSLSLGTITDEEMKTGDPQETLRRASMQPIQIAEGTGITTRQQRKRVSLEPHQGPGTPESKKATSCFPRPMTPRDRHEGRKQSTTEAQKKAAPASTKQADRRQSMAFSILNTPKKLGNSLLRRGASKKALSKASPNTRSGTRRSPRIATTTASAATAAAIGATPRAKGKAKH
UniProt E9Q7G0: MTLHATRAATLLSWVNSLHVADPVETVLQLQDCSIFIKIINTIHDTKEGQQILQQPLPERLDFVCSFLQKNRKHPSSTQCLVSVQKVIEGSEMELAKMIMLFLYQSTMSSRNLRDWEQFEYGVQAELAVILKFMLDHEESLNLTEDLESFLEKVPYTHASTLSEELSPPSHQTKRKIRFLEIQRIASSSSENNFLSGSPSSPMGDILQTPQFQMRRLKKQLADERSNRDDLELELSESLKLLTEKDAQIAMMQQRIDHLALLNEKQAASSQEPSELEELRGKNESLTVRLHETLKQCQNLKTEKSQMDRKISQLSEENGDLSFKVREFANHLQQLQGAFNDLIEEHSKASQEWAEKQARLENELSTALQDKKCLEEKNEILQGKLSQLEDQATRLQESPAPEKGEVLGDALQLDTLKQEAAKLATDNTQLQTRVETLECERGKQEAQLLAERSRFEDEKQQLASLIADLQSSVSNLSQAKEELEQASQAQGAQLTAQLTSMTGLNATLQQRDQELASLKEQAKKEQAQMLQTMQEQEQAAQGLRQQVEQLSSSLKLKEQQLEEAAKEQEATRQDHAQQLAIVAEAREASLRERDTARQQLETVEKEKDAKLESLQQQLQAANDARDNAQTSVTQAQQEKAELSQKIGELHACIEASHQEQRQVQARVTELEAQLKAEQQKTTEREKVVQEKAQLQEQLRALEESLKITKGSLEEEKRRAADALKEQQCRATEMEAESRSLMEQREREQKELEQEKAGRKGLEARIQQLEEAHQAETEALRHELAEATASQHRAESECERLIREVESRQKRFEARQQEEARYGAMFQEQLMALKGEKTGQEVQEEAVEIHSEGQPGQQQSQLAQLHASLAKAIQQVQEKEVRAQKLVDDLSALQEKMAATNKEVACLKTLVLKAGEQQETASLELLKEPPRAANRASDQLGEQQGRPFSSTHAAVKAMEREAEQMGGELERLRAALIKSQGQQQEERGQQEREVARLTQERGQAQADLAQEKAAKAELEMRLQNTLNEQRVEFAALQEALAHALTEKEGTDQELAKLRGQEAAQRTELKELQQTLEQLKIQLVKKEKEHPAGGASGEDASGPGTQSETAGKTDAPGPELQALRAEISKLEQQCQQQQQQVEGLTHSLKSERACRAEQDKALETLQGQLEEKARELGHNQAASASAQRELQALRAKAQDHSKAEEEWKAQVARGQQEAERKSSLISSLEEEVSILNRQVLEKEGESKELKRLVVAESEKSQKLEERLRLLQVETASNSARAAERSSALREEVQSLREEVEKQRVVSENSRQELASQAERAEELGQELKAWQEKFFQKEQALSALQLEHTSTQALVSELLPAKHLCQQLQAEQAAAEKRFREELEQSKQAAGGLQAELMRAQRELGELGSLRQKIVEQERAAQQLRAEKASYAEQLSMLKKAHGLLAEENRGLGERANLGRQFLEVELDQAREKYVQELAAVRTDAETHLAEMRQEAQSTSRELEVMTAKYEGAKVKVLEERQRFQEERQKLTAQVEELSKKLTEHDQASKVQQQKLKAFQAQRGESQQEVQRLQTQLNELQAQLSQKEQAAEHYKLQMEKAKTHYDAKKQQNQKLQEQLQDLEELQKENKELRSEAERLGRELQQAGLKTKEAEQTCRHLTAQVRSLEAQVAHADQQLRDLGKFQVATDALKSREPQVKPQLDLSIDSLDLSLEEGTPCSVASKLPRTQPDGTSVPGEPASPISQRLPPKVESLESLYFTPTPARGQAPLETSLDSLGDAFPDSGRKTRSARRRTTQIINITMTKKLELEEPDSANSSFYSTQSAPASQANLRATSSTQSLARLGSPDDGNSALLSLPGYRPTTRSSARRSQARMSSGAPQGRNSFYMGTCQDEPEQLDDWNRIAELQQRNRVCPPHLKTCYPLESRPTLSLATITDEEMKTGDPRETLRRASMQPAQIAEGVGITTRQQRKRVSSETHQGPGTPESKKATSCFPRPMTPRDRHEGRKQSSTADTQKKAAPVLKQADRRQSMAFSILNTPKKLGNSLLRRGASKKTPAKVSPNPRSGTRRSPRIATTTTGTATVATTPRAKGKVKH

In experiment [2] the target is GFP-p80, full-length human katanin p80 (human) (UniProt Q9BVA0). The description is as above.
Experiment [3] concerns the target GST-NuMA-FLAG (human) (UniProt Q14980). In words: pull-down; 0.2 μM GST-NuMA-FLAG prebound to glutathione Sepharose, incubated with 0.5 μM recombinant p80 or p80 fragments; both purified.

These are yes or no findings as the source states them, for the method shown. For some of these results: Binding seen in cells or lysates may run through a third protein. Some binding calls cover weakened binding; strength is not graded here.

As to “NuMA (nuclear mitotic apparatus protein), endogenous mouse (from UniProt E9Q7G0 1-2094)”, the binding result in experiment [1] and in experiment [2] was “binds” each time.
As for “recombinant full-length p80 (GST removed) (from UniProt Q9BVA0 1-655)”, the binding result in experiment [3] is reported as “binds”.
Same read-out and setting: then “recombinant p80 326-655 aa (GST removed) (from UniProt Q9BVA0 326-655) (domain or fragment)”, with “binds”.

(Values after article PMC5228124.)
